The values below come from patent US6346601 (dated 2002).

The nature of this data set: general procedure: hybrid (solid and solution phase) peptide synthesis; 2-chloro trityl chloride resin.

Regarding “cycle ^(2-7) Boc-D-Phe-Cis-Phe-D-Trp-Lys(Boc)-Thr(tBu)-Cis-OH”, the oxidative folding yield entry (oxidative folding step) was “between 85 and 95%”.

Take octreotide: the step yield (purification step, yield of the purification step) is on record as 60%. In addition, the “final purity (method not given)” value (whole synthesis) is 99%. Further, the isolated yield entry (whole synthesis, overall synthesis and purification yield) is “greater than 40%”.
